Test results as given in the supplement of paper PMC6411743.
± gives the standard deviation of the averaged measurements. Some of the results follow.

Protein sequences, listed by entry. Tags and fused reporters are not part of them. Lines headed by an entry give the natural chain unless they say otherwise; changes in a name come on top.
UniProt Q13158: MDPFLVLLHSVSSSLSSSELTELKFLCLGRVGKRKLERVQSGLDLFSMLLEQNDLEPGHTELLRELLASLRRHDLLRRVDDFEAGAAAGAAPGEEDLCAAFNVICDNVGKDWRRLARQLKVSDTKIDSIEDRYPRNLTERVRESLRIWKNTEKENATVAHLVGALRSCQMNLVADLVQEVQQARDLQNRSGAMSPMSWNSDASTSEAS
UniProt Q14004, whole entry, looked up: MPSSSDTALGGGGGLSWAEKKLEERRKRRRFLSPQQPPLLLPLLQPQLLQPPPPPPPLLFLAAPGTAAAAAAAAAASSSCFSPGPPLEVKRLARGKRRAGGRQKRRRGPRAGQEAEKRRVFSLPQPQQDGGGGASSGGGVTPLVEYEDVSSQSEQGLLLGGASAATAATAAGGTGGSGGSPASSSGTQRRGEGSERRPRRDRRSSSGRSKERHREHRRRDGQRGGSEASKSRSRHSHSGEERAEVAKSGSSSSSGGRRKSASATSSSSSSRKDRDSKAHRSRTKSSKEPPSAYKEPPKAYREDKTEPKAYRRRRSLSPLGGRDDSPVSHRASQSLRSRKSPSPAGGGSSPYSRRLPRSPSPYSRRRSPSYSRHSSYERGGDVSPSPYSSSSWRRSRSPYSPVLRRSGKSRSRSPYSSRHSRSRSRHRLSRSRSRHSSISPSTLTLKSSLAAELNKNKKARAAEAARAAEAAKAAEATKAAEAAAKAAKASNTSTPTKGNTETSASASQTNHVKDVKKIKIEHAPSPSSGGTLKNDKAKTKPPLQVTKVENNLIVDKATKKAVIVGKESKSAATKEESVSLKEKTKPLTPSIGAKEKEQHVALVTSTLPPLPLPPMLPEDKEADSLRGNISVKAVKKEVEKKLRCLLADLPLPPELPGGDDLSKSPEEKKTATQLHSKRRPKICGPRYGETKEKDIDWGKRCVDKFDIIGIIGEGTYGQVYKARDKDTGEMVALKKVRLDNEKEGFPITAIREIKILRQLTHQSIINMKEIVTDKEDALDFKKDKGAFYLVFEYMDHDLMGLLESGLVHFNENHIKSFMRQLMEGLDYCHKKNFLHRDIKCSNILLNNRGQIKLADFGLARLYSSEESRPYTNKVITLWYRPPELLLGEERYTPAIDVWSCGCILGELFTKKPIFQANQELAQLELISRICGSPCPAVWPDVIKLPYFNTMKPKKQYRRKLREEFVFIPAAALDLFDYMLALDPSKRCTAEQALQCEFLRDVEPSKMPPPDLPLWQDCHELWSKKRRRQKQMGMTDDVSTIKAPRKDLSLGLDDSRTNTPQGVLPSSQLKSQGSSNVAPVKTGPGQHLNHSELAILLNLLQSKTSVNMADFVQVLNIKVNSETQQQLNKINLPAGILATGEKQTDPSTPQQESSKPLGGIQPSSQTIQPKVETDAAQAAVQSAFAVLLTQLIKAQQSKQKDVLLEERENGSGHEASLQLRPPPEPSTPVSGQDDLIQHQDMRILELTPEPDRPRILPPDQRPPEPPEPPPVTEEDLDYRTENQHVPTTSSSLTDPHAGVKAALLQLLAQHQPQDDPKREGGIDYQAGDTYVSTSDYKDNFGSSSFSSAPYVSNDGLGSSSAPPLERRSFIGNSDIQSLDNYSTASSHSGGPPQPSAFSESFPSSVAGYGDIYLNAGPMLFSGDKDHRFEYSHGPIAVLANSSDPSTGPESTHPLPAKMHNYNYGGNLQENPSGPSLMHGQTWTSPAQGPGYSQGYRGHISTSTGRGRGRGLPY
UniProt Q04837: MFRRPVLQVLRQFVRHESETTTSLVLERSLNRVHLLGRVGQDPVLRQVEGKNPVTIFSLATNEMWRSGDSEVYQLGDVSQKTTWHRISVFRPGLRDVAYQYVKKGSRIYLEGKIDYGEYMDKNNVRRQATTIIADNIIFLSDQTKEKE
UniProt Q02252: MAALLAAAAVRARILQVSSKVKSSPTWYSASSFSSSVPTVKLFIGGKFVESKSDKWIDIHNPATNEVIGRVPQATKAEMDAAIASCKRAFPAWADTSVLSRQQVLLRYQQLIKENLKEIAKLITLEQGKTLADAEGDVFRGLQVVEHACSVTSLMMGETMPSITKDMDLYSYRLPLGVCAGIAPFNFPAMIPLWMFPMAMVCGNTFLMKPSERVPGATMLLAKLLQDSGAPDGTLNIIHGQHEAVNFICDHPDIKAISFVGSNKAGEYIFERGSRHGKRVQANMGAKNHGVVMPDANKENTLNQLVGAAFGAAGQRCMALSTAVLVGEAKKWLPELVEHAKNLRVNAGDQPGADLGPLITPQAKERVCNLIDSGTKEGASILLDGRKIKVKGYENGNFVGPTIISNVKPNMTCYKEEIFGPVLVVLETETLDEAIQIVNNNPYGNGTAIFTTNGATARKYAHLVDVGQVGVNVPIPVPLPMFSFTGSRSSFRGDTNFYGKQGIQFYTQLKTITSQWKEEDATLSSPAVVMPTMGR
UniProt Q13492: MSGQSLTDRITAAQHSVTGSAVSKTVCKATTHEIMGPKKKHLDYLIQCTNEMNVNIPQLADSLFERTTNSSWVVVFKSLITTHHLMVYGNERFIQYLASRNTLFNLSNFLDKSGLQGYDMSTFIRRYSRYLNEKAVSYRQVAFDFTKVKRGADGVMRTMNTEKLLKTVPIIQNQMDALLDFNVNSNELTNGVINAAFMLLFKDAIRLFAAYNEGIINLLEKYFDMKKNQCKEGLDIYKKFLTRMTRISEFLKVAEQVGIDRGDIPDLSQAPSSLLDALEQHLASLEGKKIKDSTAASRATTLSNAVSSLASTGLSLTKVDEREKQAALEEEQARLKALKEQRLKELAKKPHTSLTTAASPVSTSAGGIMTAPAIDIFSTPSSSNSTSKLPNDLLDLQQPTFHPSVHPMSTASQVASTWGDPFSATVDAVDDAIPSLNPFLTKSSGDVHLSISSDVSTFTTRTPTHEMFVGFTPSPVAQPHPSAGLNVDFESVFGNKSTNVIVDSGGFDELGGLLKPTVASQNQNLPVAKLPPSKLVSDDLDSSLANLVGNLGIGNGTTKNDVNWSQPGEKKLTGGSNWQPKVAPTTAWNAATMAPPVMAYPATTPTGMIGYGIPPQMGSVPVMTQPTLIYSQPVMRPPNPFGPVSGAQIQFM
UniProt Q13404: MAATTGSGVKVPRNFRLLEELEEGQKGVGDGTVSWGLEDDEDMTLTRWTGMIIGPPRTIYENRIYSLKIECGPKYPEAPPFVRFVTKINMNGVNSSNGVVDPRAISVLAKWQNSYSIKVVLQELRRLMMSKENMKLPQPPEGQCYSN
UniProt Q13868, whole entry: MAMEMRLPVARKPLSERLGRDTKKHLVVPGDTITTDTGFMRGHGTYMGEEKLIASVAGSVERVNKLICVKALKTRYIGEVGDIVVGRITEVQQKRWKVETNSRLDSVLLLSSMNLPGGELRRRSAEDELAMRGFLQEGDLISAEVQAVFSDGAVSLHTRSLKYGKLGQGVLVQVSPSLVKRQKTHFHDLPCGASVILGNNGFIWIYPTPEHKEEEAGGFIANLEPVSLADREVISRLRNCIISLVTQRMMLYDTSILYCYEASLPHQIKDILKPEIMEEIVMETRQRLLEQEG
UniProt Q14188: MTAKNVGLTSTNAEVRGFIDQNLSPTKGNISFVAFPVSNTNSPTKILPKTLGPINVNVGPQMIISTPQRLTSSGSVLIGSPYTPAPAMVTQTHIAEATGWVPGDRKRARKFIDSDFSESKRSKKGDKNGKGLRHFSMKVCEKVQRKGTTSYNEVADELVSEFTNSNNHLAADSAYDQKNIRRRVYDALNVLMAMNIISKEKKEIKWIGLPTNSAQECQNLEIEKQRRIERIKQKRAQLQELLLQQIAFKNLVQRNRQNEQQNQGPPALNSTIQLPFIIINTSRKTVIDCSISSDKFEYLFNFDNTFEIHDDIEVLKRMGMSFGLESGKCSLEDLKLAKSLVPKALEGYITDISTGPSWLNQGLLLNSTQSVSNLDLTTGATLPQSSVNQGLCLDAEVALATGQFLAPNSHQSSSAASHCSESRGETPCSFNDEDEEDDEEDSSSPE
UniProt Q14011: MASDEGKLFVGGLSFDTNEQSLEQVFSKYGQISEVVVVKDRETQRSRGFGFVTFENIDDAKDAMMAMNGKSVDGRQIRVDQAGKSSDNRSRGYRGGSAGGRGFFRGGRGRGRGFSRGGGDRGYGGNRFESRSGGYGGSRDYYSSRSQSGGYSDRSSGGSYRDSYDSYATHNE
UniProt Q01831: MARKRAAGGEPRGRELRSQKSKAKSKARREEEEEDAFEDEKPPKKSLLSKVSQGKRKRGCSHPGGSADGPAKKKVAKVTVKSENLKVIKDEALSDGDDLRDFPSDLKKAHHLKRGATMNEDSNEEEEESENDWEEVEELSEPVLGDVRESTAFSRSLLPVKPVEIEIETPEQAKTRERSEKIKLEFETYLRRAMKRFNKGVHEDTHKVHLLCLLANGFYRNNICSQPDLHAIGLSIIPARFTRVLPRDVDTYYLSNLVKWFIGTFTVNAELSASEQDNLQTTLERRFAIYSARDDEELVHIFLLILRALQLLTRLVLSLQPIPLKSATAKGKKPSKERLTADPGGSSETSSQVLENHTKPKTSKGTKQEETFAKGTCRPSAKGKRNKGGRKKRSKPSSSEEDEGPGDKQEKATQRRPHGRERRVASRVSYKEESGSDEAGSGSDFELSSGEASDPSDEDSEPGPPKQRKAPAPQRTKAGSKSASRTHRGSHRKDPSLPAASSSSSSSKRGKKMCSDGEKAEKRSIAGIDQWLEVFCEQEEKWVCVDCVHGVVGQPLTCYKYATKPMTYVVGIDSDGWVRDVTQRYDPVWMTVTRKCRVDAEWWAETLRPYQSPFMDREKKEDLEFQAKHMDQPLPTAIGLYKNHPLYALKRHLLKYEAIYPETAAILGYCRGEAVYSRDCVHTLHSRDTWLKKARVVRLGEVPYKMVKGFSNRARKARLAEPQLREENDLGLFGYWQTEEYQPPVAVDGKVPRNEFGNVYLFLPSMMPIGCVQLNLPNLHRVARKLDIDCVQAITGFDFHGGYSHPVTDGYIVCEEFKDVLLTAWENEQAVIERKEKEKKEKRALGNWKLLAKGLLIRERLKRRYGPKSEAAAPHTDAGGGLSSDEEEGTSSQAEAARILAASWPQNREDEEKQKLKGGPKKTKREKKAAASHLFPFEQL
UniProt Q05655: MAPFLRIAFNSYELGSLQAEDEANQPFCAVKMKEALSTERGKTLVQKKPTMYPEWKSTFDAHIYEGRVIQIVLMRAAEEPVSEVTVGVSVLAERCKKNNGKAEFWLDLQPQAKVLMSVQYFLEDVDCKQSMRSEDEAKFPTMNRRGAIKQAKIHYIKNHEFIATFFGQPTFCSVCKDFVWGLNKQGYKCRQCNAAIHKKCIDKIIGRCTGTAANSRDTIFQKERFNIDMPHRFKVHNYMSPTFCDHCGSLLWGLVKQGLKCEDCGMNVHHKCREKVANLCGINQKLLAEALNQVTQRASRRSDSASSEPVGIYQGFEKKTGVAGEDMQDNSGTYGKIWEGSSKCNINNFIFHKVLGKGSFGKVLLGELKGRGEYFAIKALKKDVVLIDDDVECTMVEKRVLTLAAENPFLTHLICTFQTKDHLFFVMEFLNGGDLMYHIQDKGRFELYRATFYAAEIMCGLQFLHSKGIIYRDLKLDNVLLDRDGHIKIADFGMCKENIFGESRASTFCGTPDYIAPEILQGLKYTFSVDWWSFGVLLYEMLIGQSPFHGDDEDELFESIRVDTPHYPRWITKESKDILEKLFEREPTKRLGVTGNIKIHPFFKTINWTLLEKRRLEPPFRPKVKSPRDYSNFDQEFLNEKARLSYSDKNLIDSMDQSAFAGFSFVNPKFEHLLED
UniProt Q01459: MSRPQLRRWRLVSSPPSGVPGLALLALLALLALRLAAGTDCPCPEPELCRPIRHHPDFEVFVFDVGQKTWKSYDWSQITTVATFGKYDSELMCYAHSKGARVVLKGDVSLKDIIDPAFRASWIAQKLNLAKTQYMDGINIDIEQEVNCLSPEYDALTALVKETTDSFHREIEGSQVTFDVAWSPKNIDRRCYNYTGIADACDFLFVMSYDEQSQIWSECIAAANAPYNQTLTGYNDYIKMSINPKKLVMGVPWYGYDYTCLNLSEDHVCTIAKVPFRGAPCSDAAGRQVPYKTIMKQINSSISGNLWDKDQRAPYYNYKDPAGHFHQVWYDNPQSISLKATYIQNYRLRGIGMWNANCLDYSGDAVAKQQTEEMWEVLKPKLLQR
UniProt Q06265, whole entry: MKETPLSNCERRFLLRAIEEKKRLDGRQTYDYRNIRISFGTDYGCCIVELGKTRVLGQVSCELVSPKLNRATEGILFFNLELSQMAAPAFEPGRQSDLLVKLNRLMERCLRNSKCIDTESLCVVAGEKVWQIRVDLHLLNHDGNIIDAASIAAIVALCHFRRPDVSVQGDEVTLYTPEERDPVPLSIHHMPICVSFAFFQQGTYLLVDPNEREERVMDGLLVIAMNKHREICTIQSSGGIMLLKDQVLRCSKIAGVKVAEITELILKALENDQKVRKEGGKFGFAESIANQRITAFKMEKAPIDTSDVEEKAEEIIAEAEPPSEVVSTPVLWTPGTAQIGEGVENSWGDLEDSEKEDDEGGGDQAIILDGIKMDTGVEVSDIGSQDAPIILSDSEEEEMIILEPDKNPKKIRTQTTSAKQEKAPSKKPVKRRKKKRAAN

Compound: Nc1nc2c(ncn2[C@@H]2O[C@H](COP(=O)(O)OP(=O)(O)OP(=O)(O)O)[C@@H](O)[C@H]2O)c(=O)[nH]1 [guanosine triphosphate]
Assay: NP40-soluble protein abundance relative to vehicle (solubility fold change) (ratio); higher = more soluble protein in presence of GTP
Outline: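 Each value is a fold change relative to the detergent-processed vehicle, calculated per replicate from vsn-normalised intensities. Jurkat crude lysate received eight concentrations (0.1 to 10 mM) for 10 min at room temperature and 3 min at 37 °C, then was solubilised in 0.8% NP40 with benzonase (60 min, 4 °C). The ultracentrifuged supernatant was TMT-labelled and run by LC-MS/MS in three independent experiments.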

Target | NP40-soluble protein abundance (concentration: 0.1mM) | NP40-soluble protein abundance (concentration: 0.5mM) | NP40-soluble protein abundance (concentration: 1mM) | NP40-soluble protein abundance (concentration: 2mM) | NP40-soluble protein abundance (concentration: 4mM) | NP40-soluble protein abundance (concentration: 6mM) | NP40-soluble protein abundance (concentration: 8mM) | NP40-soluble protein abundance (concentration: 10mM)
DGKZ (UniProt Q13574) | 1.01 ± 0.05 | 1.08 ± 0.06 | 1.03 ± 0.027 | 1.07 ± 0.086 | 0.959 ± 0.065 | 0.97 ± 0.091 | 0.983 ± 0.071 | 0.941 ± 0.12
UniProt Q13155 | 1.12 ± 0.055 | 1.08 ± 0.12 | 1.21 ± 0.2 | 1.21 ± 0.21 | 1.3 ± 0.24 | 1.27 ± 0.29 | 1.34 ± 0.3 | 1.19 ± 0.26
IQGAP2 (UniProt Q13576) | 1.04 ± 0.017 | 1.08 ± 0.048 | 1.02 ± 0.036 | 1.02 ± 0.047 | 1.02 ± 0.034 | 1 ± 0.031 | 0.995 ± 0.021 | 0.959 ± 0.03
FADD (UniProt Q13158) | 0.915 ± 0.014 | 0.86 ± 0.062 | 0.951 ± 0.057 | 0.945 ± 0.079 | 0.874 ± 0.063 | 0.893 ± 0.09 | 0.856 ± 0.15 | 0.858 ± 0.1
MTMR2 (UniProt Q13614) | 1.05 ± 0.16 | 1.07 ± 0.14 | 1.01 ± 0.1 | 1 ± 0.074 | 0.993 ± 0.085 | 1.02 ± 0.12 | 0.953 ± 0.099 | 0.915 ± 0.1
GALNT1 (UniProt Q10472) | 0.963 ± 0.026 | 1.03 ± 0.077 | 0.937 ± 0.02 | 0.994 ± 0.071 | 0.962 ± 0.048 | 0.982 ± 0.048 | 0.963 ± 0.049 | 0.965 ± 0.039
TRIM28 (UniProt Q13263) | 0.981 ± 0.041 | 0.98 ± 0.028 | 0.988 ± 0.061 | 0.948 ± 0.058 | 0.944 ± 0.06 | 0.95 ± 0.06 | 0.97 ± 0.035 | 0.939 ± 0.04
UniProt Q14004 and related entries | 1.02 ± 0.037 | 1.107 ± 0.0034 | 1.16 ± 0.032 | 1.18 ± 0.042 | 1.2 ± 0.043 | 1.21 ± 0.057 | 1.24 ± 0.099 | 1.22 ± 0.12
SSBP1 (UniProt Q04837) | 0.942 ± 0.04 | 1 ± 0.048 | 0.918 ± 0.045 | 0.904 ± 0.016 | 0.856 ± 0.029 | 0.891 ± 0.022 | 0.867 ± 0.044 | 0.862 ± 0.032
UniProt Q02252 and related entries | 0.988 ± 0.021 | 0.981 ± 0.023 | 0.964 ± 0.029 | 0.93 ± 0.026 | 0.919 ± 0.041 | 0.924 ± 0.021 | 0.901 ± 0.056 | 0.894 ± 0.074
UniProt Q13492 and related entries | 1.01 ± 0.051 | 0.977 ± 0.063 | 0.965 ± 0.03 | 0.939 ± 0.04 | 0.908 ± 0.021 | 0.902 ± 0.015 | 0.884 ± 0.05 | 0.86 ± 0.046
UBE2V1 (UniProt Q13404) | 0.942 ± 0.037 | 0.896 ± 0.019 | 0.876 ± 0.031 | 0.873 ± 0.039 | 0.861 ± 0.051 | 0.852 ± 0.038 | 0.848 ± 0.1 | 0.849 ± 0.067
UniProt Q04864 and related entries | 0.995 ± 0.038 | 1.01 ± 0.048 | 0.931 ± 0.038 | 0.96 ± 0.03 | 0.955 ± 0.04 | 0.948 ± 0.022 | 0.924 ± 0.048 | 0.893 ± 0.055
UniProt Q13868 and related entries | 0.973 ± 0.089 | 0.996 ± 0.063 | 0.928 ± 0.032 | 1.06 ± 0.12 | 1.07 ± 0.026 | 1.1 ± 0.12 | 1.04 ± 0.033 | 1.06 ± 0.084
TFDP2 (UniProt Q14188) | 1.03 ± 0.16 | 1.07 ± 0.079 | 1.12 ± 0.044 | 1.09 ± 0.13 | 1.04 ± 0.16 | 1.07 ± 0.1 | 1.09 ± 0.034 | 1.05 ± 0.1
UNC119 (UniProt Q13432) | 1 ± 0.098 | 1.02 ± 0.084 | 1.06 ± 0.12 | 1 ± 0.081 | 0.991 ± 0.073 | 0.986 ± 0.06 | 0.996 ± 0.15 | 0.961 ± 0.096
CSTF1 (UniProt Q05048) | 1.06 ± 0.038 | 1.07 ± 0.094 | 0.969 ± 0.057 | 1.04 ± 0.12 | 1.04 ± 0.12 | 1.09 ± 0.14 | 1.03 ± 0.075 | 0.986 ± 0.017
TBL3 (UniProt Q12788) | 1.18 ± 0.1 | 1.16 ± 0.14 | 1.11 ± 0.058 | 1.36 ± 0.15 | 1.59 ± 0.19 | 1.65 ± 0.17 | 1.72 ± 0.21 | 1.7 ± 0.26
CBX3 (UniProt Q13185) | 0.872 ± 0.038 | 0.872 ± 0.039 | 0.987 ± 0.054 | 0.959 ± 0.045 | 0.955 ± 0.038 | 0.989 ± 0.044 | 1.02 ± 0.092 | 1.07 ± 0.072
CIRBP (UniProt Q14011) | 0.921 ± 0.12 | 0.934 ± 0.11 | 0.962 ± 0.13 | 0.928 ± 0.13 | 0.966 ± 0.087 | 1.03 ± 0.12 | 1.04 ± 0.12 | 1.07 ± 0.12
XPC (UniProt Q01831) | 0.945 ± 0.07 | 0.948 ± 0.056 | 0.943 ± 0.028 | 0.934 ± 0.022 | 0.99 ± 0.051 | 0.997 ± 0.054 | 1.02 ± 0.045 | 1.01 ± 0.041
UniProt Q05655 | 0.978 ± 0.076 | 1 ± 0.037 | 0.98 ± 0.035 | 1.01 ± 0.038 | 0.956 ± 0.026 | 0.938 ± 0.056 | 0.933 ± 0.062 | 0.914 ± 0.058
UniProt Q01085-2 | 0.933 ± 0.1 | 0.931 ± 0.12 | 0.875 ± 0.14 | 0.863 ± 0.096 | 0.839 ± 0.11 | 0.853 ± 0.11 | 0.844 ± 0.15 | 0.863 ± 0.14
UniProt Q12873 and related entries | 1.06 ± 0.054 | 1.12 ± 0.12 | 1.12 ± 0.13 | 1.22 ± 0.19 | 1.25 ± 0.21 | 1.27 ± 0.19 | 1.28 ± 0.19 | 1.28 ± 0.17
CTBS (UniProt Q01459) | 0.937 ± 0.0074 | 0.95 ± 0.04 | 0.909 ± 0.04 | 0.918 ± 0.07 | 0.863 ± 0.054 | 0.894 ± 0.04 | 0.881 ± 0.035 | 0.892 ± 0.055
UniProt Q06265 and related entries | 1.05 ± 0.032 | 1.03 ± 0.054 | 1.03 ± 0.086 | 1.08 ± 0.11 | 1.19 ± 0.12 | 1.16 ± 0.16 | 1.25 ± 0.16 | 1.21 ± 0.15
MORC3 (UniProt Q14149) | 1.03 ± 0.081 | 1 ± 0.054 | 0.988 ± 0.055 | 0.99 ± 0.045 | 1.01 ± 0.078 | 0.95 ± 0.05 | 0.947 ± 0.042 | 0.92 ± 0.034
CRYZ (UniProt Q08257) | 1.03 ± 0.05 | 1.03 ± 0.075 | 0.937 ± 0.012 | 0.947 ± 0.089 | 0.895 ± 0.036 | 0.908 ± 0.054 | 0.878 ± 0.0092 | 0.845 ± 0.023
NUP160 (UniProt Q12769) | 1.08 ± 0.067 | 1.11 ± 0.14 | 1.07 ± 0.12 | 1.1 ± 0.18 | 1.14 ± 0.17 | 1.1 ± 0.17 | 1.17 ± 0.11 | 1.19 ± 0.066
UniProt Q13127 and related entries | 0.963 ± 0.041 | 0.985 ± 0.079 | 0.975 ± 0.078 | 0.944 ± 0.082 | 0.989 ± 0.058 | 1 ± 0.032 | 1.11 ± 0.035 | 1.12 ± 0.087

Rewritten field by field: part of the list above.
TRIM28 (UniProt Q13263)
  NP40-soluble protein abundance (concentration: 0.1mM): 0.981 ± 0.041; NP40-soluble protein abundance (concentration: 0.5mM): 0.98 ± 0.028; NP40-soluble protein abundance (concentration: 1mM): 0.988 ± 0.061; NP40-soluble protein abundance (concentration: 2mM): 0.948 ± 0.058; NP40-soluble protein abundance (concentration: 4mM): 0.944 ± 0.06; NP40-soluble protein abundance (concentration: 6mM): 0.95 ± 0.06; NP40-soluble protein abundance (concentration: 8mM): 0.97 ± 0.035; NP40-soluble protein abundance (concentration: 10mM): 0.939 ± 0.04
TBL3 (UniProt Q12788)
  NP40-soluble protein abundance (concentration: 0.1mM): 1.18 ± 0.1; NP40-soluble protein abundance (concentration: 0.5mM): 1.16 ± 0.14; NP40-soluble protein abundance (concentration: 1mM): 1.11 ± 0.058; NP40-soluble protein abundance (concentration: 2mM): 1.36 ± 0.15; NP40-soluble protein abundance (concentration: 4mM): 1.59 ± 0.19; NP40-soluble protein abundance (concentration: 6mM): 1.65 ± 0.17; NP40-soluble protein abundance (concentration: 8mM): 1.72 ± 0.21; NP40-soluble protein abundance (concentration: 10mM): 1.7 ± 0.26
